No constants are given. Whether binding was seen depends on the method and setting. Binding can be weak; no strength is given.

By UniProt entry, the sequences of proteins in these tests, tags left out. Where a name states a change or a piece, a line headed by the entry shows the natural chain unless it says otherwise.
UniProt P35225: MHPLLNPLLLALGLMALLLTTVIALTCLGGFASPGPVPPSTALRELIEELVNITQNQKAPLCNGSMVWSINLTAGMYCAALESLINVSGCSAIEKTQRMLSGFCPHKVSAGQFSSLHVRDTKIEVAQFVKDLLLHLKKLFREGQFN

The target of assay [1] is T1, IL-13Rα1 monomer (IL-13Rα1 extracellular domain) (human) (UniProt P78552).
T1 sequence (looked up): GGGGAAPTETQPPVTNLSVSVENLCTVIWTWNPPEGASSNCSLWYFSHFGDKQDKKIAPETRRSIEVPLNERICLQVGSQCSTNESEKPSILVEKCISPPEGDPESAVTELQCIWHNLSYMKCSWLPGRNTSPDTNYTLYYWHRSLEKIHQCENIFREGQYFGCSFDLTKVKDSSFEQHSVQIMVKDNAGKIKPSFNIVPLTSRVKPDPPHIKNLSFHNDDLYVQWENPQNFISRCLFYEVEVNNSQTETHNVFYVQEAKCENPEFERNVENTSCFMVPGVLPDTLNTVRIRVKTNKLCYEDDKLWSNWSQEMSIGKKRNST
Kind of assay: SPR (Biacore 3000), IL-13Rα1 immobilised.

Assay [2] concerns the target T1, IL-13Rα1 monomer (IL-13Rα1 extracellular domain) (human). Kind of assay: SPR, IL-13Rα1 immobilised. On the technique in general: In SPR one partner is held on a chip, and binding of the other changes the refractive index at the surface.
Assay [3] has the same target. Kind of assay: TR-FRET assay 1, competition. In general terms: In TR-FRET formats the signal depends on donor and acceptor labels being close together.
In assay [4] the target is Eu-IL-13 (europium chelate labeled IL-13) (human) (UniProt P35225). Kind of assay: TR-FRET assay 1, direct binding.
Assay [5] has the same target. Kind of assay: TR-FRET assay 1.

Take “Human recombinant IL-13 (from UniProt P35225) (ligand)”: the binding result in assay [1], in assay [2] and in assay [3] was “binds” throughout.

B1: Cy5-IL-13Rα1 (Cy5 labeled IL-13Rα1) (receptor, human, UniProt P78552 22-343, looked up)
chain: GGGGAAPTETQPPVTNLSVSVENLCTVIWTWNPPEGASSNCSLWYFSHFGDKQDKKIAPETRRSIEVPLNERICLQVGSQCSTNESEKPSILVEKCISPPEGDPESAVTELQCIWHNLSYMKCSWLPGRNTSPDTNYTLYYWHRSLEKIHQCENIFREGQYFGCSFDLTKVKDSSFEQHSVQIMVKDNAGKIKPSFNIVPLTSRVKPDPPHIKNLSFHNDDLYVQWENPQNFISRCLFYEVEVNNSQTETHNVFYVQEAKCENPEFERNVENTSCFMVPGVLPDTLNTVRIRVKTNKLCYEDDKLWSNWSQEMSIGKKRNST
modifications: Cy5 label, directly labeled; site not stated
notes: extracellular domain; also called IL-13R-Cys5; Cy5-IL-13RI1
As for B1, the binding entry in assay [4] and in assay [5] was “binds” in each case.

Values taken from patent publication US20090156421A1 (published 2009).
